Experimental findings from article doi:10.1101/2022.01.31.478465 (bioRxiv, 2022) are described below.

Results are given in words; binding and its absence hold for the method and conditions named. For some assays here: In cells and extracts the contact can be indirect. Some entries that bind do so weakly or less than the wild type.

Experiment [1] addresses T1, AtPRP40b, recombinant (A. thaliana, UniProt F4JCC1 1-992).
T1 sequence: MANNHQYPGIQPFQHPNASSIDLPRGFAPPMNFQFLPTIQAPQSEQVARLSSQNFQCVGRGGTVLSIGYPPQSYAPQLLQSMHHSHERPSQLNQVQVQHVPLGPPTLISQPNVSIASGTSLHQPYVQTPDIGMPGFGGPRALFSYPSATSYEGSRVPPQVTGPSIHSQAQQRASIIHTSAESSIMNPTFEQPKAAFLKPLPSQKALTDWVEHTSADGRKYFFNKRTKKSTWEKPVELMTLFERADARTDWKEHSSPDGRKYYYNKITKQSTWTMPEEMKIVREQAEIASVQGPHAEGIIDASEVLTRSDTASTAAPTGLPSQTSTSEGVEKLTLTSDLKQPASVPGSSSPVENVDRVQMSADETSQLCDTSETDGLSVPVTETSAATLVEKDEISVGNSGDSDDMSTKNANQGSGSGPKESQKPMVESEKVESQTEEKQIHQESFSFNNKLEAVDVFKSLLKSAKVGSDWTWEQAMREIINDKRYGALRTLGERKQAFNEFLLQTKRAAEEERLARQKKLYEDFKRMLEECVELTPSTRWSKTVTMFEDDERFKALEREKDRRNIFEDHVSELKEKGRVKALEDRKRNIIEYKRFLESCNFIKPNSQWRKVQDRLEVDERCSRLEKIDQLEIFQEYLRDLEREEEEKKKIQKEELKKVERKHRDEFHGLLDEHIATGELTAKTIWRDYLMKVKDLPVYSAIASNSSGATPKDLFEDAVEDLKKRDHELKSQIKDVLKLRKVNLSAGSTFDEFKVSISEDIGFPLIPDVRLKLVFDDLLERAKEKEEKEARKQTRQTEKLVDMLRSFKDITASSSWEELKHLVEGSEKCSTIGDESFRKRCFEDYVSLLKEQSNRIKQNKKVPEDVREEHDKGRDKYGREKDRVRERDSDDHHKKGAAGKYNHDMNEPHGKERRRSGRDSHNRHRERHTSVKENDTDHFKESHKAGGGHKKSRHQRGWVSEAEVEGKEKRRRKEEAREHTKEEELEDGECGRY
Nature of the experiment: pull-down.

The target in experiment [2] is T2, AtPRP40b, in nuclei of A. thaliana leaves (A. thaliana (endogenous in leaf nuclei)) (UniProt F4JCC1).
T2 sequence: T1 sequence
The experiment is described as follows: proximity ligation.

B1: SE protein lacking forty C-terminal amino acids (SEΔ681-720), recombinant (domain or fragment, UniProt Q9ZVD0 1-680)
chain: MADVNLPPSDSVDNRLPEKSTSSSPPPPPPSSSLPQQEQEQDQQQLPLRRERDSRERRDERDIERPPPNRRERDRSPLPPPRRDYKRRPSLSPPPPYRDRRHSPPQRRSPPQKRYRRDDNGYDGRRGSPRGGYGPPDRRFGYDHGGGYDREMGGRPGYGDERPHGRFMGRYQDWEGGRGGYGDASNSGNPQRDGLMSYKQFIQELEDDILPSEAERRYQEYKSEYITTQKRAFFNTHKEEDWLKNKYHPTNLLSVIERRNDLAQKVAKDFLLDLQSGTLDLGPAVTALNKSGRTSEPNSEDEAAGVGKRKRHGMGGAKENELLSAAPKAPSFTSDPKRILTDVEQTQALVRKLDSEKKIEENVLQGSETEKSGREKLHSGSTGPVVIIRGLTSVKGLEGVELLDTLVTYLWRVHGLDYYGKVETNEAKGLRHVRAEGKVSDAKGDENESKFDSHWQERLKGQDPLEVMAAKEKIDAAATEALDPHVRKIRDEKYGWKYGCGAKGCTKLFHAAEFVYKHLKLKHTELVTELTTKVREELYFQNYMNDPNAPGGQPATQQSGPRDRPIRRKPSMENRLRDDRGGRRERDGRANGNDRNDRSEDQQRGDNDGGNPGEVGYDAFGGQGGVHVPPFLSDINPPPMLMPVPGAGPLGPFVPAPPEVAMQMFRDPSGPNPPFEGSGR
Consider B1, for which the binding result in experiment [1] was “no binding (tested: 2 µg of SE variant)”.

B2: SERRATE (SE), full length, recombinant (natural protein, A. thaliana, UniProt Q9ZVD0 1-720, looked up)
chain: MADVNLPPSDSVDNRLPEKSTSSSPPPPPPSSSLPQQEQEQDQQQLPLRRERDSRERRDERDIERPPPNRRERDRSPLPPPRRDYKRRPSLSPPPPYRDRRHSPPQRRSPPQKRYRRDDNGYDGRRGSPRGGYGPPDRRFGYDHGGGYDREMGGRPGYGDERPHGRFMGRYQDWEGGRGGYGDASNSGNPQRDGLMSYKQFIQELEDDILPSEAERRYQEYKSEYITTQKRAFFNTHKEEDWLKNKYHPTNLLSVIERRNDLAQKVAKDFLLDLQSGTLDLGPAVTALNKSGRTSEPNSEDEAAGVGKRKRHGMGGAKENELLSAAPKAPSFTSDPKRILTDVEQTQALVRKLDSEKKIEENVLQGSETEKSGREKLHSGSTGPVVIIRGLTSVKGLEGVELLDTLVTYLWRVHGLDYYGKVETNEAKGLRHVRAEGKVSDAKGDENESKFDSHWQERLKGQDPLEVMAAKEKIDAAATEALDPHVRKIRDEKYGWKYGCGAKGCTKLFHAAEFVYKHLKLKHTELVTELTTKVREELYFQNYMNDPNAPGGQPATQQSGPRDRPIRRKPSMENRLRDDRGGRRERDGRANGNDRNDRSEDQQRGDNDGGNPGEVGYDAFGGQGGVHVPPFLSDINPPPMLMPVPGAGPLGPFVPAPPEVAMQMFRDPSGPNPPFEGSGRGGPAPFLLSPAFRQDPRRLRSYQDLDAPEEEVTVIDYRSL
For B2, the binding result in experiment [2] is given as “binds”.
